Test results published in PMC4916389.

Amino acid sequences for entries named in this document (tags omitted). A change or cut given only in a name is not applied to a line headed by its entry.
UniProt F7VVV0: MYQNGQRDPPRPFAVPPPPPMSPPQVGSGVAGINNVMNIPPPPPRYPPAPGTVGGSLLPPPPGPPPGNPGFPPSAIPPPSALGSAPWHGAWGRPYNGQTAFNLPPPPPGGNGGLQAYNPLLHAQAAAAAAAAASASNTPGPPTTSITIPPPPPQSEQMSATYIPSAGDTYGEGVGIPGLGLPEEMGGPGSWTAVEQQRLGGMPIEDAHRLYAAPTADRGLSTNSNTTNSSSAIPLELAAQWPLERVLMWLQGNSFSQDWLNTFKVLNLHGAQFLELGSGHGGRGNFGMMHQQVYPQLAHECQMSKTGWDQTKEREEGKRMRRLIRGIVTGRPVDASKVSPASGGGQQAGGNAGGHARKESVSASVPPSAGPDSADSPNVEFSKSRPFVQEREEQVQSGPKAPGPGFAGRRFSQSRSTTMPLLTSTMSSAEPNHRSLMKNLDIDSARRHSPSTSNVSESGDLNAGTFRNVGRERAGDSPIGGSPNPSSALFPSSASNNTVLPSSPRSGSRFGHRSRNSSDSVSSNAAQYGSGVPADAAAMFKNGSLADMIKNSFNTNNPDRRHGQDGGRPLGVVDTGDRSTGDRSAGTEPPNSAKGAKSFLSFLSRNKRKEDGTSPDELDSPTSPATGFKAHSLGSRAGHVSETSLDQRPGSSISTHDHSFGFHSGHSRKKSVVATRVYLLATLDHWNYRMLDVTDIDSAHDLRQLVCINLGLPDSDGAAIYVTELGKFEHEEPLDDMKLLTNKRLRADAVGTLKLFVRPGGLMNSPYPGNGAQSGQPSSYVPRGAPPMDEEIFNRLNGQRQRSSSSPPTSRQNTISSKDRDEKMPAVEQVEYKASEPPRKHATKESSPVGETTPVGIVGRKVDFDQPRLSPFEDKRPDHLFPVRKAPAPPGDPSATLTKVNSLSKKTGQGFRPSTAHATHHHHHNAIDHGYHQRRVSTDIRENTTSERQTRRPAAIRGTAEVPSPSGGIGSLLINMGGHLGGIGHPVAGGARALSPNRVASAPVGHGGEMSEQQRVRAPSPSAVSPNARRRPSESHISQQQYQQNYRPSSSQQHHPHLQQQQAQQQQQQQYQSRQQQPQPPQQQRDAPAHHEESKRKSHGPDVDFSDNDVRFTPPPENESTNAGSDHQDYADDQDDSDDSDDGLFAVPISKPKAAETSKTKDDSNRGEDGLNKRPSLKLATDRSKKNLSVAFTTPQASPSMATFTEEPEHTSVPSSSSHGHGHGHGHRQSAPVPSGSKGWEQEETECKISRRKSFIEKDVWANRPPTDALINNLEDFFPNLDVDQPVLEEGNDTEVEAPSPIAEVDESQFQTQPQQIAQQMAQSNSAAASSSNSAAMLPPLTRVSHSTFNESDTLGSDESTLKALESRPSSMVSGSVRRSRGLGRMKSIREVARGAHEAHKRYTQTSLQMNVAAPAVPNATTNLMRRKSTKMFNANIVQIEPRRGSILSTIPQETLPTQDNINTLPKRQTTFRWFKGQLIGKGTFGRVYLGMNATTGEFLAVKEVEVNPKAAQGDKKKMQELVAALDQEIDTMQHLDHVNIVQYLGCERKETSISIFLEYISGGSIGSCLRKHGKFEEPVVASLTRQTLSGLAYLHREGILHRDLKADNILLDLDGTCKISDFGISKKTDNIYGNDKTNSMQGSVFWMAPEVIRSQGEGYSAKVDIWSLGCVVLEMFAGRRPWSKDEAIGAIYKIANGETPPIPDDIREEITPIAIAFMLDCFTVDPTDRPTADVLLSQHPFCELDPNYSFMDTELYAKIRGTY
UniProt F7VLP8: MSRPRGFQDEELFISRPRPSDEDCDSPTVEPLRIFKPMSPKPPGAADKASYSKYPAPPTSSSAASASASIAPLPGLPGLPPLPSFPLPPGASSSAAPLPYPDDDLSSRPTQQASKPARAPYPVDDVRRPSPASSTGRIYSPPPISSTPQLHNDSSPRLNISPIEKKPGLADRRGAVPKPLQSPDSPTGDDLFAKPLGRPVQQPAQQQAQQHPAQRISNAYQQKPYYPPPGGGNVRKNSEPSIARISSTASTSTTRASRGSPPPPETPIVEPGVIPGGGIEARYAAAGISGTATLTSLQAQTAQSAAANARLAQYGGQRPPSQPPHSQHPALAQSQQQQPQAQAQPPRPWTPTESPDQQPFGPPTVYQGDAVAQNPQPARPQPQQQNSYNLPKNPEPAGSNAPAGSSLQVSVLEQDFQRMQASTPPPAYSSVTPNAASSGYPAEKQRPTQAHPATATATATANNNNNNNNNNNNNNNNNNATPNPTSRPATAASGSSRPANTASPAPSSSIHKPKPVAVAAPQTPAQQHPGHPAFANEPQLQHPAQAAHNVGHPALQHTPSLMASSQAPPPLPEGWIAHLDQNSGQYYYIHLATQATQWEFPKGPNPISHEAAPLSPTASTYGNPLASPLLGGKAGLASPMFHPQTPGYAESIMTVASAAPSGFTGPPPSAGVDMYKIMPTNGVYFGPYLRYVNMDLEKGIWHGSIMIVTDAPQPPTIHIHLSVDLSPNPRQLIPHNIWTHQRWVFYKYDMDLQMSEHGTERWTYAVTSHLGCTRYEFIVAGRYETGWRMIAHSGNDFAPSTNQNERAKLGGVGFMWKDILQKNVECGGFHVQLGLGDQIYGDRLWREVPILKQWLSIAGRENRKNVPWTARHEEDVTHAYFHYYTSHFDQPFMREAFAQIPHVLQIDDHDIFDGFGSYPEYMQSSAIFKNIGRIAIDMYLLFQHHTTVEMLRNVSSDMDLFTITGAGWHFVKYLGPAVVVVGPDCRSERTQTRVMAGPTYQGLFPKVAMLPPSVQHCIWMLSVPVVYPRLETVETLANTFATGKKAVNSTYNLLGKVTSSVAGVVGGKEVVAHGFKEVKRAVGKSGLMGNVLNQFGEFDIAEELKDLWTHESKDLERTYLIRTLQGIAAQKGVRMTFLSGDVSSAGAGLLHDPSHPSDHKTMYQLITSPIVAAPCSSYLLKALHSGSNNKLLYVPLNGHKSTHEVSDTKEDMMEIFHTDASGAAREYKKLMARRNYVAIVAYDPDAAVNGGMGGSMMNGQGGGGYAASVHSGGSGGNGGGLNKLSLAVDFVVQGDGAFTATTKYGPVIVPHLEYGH
UniProt F7W245: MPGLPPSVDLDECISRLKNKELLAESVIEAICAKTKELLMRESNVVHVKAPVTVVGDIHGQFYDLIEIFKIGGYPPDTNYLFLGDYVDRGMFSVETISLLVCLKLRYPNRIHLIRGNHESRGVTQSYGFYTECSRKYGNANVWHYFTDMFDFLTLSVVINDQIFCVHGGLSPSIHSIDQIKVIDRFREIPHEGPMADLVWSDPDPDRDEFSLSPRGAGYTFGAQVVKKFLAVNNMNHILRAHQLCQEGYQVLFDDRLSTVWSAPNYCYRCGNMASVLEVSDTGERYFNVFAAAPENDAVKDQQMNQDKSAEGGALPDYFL

How the values were obtained:
Experiment in all cases: two-hybrid; Gal4 AD (pGADT7 derivatives, PJ69-4a) and BD (pGBKT7 derivatives, PJ69-4α) fusions in mated diploid S. cerevisiae; growth on SD medium lacking adenine, histidine, leucine and tryptophan/uracil; transactivating constructs pB-pp2Ac1, pB-pro11, pB-Smmob3 and pB-ENT1 omitted
[1] = target: MAPK kinase kinase MIK1, yeast two-hybrid fusion (Sordaria macrospora) (UniProt F7VVV0)
[2] = target: T1, TAP42, yeast two-hybrid fusion (Sordaria macrospora) (UniProt F7VNJ5)
T1 sequence: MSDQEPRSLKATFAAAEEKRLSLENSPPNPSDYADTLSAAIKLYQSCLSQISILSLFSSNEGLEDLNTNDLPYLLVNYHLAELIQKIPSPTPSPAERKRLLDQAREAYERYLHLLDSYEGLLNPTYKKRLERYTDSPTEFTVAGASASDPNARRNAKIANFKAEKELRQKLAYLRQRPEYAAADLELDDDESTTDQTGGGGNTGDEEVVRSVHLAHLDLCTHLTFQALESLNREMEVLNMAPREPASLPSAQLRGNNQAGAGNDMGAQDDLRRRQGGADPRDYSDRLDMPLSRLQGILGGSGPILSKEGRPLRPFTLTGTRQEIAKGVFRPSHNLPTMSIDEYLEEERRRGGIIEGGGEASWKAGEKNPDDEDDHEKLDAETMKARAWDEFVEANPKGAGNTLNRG

[3] = target: T2, PP2AA, yeast two-hybrid fusion (Sordaria macrospora) (UniProt F7VS87)
T2 sequence: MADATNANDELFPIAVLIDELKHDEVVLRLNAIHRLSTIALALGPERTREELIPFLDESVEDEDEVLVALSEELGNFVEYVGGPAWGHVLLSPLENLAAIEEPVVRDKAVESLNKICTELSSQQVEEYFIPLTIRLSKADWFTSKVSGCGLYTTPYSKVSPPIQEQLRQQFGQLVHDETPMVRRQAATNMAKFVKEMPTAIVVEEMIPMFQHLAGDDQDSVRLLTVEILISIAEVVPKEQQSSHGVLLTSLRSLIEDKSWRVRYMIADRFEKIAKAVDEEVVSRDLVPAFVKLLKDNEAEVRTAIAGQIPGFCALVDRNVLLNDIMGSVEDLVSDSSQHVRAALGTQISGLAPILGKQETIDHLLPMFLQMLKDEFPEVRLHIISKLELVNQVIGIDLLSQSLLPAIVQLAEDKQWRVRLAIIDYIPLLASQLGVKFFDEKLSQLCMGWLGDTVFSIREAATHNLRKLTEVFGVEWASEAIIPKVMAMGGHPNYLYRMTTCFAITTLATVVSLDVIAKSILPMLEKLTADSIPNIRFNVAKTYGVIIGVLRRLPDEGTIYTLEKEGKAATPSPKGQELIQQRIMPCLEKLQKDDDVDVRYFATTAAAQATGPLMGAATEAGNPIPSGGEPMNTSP

[4] = target: T3, PRO22, yeast two-hybrid fusion (Sordaria macrospora) (UniProt F7VWV9)
T3 sequence: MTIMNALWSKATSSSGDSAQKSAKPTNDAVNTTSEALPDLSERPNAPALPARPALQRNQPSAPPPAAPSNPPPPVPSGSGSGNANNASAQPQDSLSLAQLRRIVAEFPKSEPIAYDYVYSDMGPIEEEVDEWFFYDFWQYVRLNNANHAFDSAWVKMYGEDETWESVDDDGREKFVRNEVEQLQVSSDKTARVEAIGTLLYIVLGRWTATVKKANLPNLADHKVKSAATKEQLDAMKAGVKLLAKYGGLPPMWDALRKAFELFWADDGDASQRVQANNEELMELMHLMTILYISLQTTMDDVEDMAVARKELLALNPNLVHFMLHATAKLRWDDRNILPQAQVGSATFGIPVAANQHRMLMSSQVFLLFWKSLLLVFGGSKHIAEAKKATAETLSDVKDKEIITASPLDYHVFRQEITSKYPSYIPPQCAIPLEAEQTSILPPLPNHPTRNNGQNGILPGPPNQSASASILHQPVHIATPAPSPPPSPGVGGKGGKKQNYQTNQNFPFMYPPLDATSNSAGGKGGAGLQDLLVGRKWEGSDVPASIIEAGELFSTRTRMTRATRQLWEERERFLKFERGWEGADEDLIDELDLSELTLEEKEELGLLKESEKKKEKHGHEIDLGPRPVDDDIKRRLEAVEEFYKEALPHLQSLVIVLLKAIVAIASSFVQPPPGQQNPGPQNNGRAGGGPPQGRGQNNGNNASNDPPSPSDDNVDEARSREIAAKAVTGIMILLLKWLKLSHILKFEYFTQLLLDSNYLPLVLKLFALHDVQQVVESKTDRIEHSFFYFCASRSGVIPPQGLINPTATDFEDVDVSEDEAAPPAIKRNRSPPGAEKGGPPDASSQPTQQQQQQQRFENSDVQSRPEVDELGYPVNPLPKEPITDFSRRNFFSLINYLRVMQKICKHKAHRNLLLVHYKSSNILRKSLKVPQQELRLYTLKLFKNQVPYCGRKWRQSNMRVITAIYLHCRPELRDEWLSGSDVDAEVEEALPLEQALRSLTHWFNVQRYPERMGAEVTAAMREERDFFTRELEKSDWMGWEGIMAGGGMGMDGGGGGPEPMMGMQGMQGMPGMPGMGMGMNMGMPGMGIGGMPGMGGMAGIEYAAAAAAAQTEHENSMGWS

[5] = target: T4, PTPA1, yeast two-hybrid fusion (Sordaria macrospora) (UniProt F7VW68)
T4 sequence: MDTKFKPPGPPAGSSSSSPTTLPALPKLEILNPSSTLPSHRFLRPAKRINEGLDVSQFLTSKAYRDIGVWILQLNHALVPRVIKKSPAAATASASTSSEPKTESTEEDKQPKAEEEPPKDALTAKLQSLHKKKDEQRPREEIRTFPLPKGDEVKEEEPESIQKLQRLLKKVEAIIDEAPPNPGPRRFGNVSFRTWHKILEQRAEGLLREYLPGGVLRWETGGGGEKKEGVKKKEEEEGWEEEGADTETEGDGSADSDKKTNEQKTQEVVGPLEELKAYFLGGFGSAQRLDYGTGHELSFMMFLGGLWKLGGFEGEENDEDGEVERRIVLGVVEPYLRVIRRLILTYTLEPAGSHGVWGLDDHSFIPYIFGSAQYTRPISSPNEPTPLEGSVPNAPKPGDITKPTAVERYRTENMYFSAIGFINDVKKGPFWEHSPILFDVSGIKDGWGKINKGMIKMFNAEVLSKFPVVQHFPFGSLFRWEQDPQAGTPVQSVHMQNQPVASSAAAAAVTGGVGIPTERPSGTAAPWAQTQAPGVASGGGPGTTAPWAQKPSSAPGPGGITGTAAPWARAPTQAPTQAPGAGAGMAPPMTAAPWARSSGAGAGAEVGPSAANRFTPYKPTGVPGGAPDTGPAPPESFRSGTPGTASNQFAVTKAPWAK

[6] = target: PRO40, yeast two-hybrid fusion (Sordaria macrospora) (UniProt F7VLP8)
[7] = target: PRO22-PxxP (full-length PRO22 with a mutation in the PxxP motif), yeast two-hybrid fusion (Sordaria macrospora) (UniProt F7VWV9)

Row | binding [1] | binding [2] | binding [3] | binding [4] | binding [5] | binding [6] | binding [7] | Substance
1 | binds | binds | binds | binds | binds | binds | binds | PP2Ac1, yeast two-hybrid fusion (Gal4 activation domain) (from UniProt F7W245) (enzyme)
2 | – | – | binds | – | – | – | – | PRO40, yeast two-hybrid fusion (from UniProt F7VLP8)

No constants are given. Whether binding was seen depends on the method and setting. Binding can be weak; no strength is given. For some assays here: Tags and fused reporters may be left off the sequences shown.
